± gives the standard deviation of the averaged measurements. Some of the results follow.

Sequences of proteins named here, by UniProt entry; tags and fusion partners are left off. A change or cut given only in a name is not applied to a line headed by its entry.
UniProt Q9H081: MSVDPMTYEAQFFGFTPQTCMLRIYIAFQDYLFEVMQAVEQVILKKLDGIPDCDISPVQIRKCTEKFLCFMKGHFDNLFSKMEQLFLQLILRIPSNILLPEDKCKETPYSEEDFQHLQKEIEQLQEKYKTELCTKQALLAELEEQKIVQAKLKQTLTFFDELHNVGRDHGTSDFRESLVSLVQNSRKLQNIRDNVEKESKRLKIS
UniProt Q9NRG4: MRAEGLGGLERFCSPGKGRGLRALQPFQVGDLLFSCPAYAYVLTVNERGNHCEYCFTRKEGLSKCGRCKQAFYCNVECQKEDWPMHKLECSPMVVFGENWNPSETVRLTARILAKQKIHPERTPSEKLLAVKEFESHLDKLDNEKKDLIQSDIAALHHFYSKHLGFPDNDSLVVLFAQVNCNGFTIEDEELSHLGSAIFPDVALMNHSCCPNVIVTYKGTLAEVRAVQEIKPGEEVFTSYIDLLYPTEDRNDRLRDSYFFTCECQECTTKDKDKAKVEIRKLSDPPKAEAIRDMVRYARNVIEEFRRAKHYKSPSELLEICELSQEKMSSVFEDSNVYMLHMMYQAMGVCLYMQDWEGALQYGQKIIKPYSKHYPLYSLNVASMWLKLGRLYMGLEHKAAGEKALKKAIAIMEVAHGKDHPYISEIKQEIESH
UniProt Q9H6D7: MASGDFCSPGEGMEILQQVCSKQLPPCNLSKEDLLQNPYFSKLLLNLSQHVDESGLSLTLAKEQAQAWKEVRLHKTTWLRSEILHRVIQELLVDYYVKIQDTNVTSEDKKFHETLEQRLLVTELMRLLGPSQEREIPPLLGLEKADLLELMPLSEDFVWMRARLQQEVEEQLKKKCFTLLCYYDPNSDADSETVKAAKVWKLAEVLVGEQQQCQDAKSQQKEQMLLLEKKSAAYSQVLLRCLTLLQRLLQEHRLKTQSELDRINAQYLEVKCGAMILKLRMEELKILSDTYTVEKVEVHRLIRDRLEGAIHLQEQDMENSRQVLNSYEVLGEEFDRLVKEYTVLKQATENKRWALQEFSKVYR
UniProt Q9H269: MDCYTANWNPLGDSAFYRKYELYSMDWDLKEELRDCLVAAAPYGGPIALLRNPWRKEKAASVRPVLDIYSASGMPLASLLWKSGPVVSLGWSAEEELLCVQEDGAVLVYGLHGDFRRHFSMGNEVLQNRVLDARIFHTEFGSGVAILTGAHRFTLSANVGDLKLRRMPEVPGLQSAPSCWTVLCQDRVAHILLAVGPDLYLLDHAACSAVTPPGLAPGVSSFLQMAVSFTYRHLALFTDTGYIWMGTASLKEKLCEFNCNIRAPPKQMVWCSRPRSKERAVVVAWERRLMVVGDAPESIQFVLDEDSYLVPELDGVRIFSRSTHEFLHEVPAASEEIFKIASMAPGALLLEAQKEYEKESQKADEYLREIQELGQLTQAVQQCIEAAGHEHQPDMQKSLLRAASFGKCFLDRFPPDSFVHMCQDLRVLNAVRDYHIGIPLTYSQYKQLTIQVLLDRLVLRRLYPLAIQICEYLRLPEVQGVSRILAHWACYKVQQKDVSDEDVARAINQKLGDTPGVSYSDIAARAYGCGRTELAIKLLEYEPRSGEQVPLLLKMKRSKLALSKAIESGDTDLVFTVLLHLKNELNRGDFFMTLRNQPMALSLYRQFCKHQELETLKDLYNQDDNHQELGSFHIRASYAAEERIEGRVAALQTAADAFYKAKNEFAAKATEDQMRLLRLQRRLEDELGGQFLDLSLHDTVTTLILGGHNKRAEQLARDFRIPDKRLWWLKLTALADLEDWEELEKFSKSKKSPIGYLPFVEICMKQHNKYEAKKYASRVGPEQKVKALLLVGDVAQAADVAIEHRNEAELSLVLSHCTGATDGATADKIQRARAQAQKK

These results are taken from the supplement of paper PMC6411743.

Compound in the assay: Nc1nc2c(ncn2[C@@H]2O[C@H](COP(=O)(O)OP(=O)(O)OP(=O)(O)O)[C@@H](O)[C@H]2O)c(=O)[nH]1 [guanosine triphosphate]
Nature of the assay: NP40-soluble protein abundance relative to vehicle (solubility fold change) (ratio); higher = more soluble protein in presence of GTP. As for the experimental part:
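Solubility proteome profiling in Jurkat crude lysate. Lysate was treated with Mg-GTP (0.1-10 mM) for 10 min at room temperature and 3 min at 37 °C, then solubilised with 0.8% NP40 and benzonase, followed by ultracentrifugation. Proteins were quantified by TMT10 LC-MS/MS; the value is the NP40-soluble abundance relative to the NP40-processed vehicle, from 3 independent experiments.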

Consider MIS12 (UniProt Q9H081), for which the NP40-soluble protein abundance (concentration: 0.1mM) came to 1.22 ± 0.043; the NP40-soluble protein abundance (concentration: 0.5mM) was 1.04 ± 0.026; the NP40-soluble protein abundance (concentration: 1mM) was found to be 1.15 ± 0.11; the NP40-soluble protein abundance (concentration: 2mM) turned out to be 1.06 ± 0.034; the NP40-soluble protein abundance (concentration: 4mM) amounted to 1.19 ± 0.057; the NP40-soluble protein abundance (concentration: 6mM) is 1.03 ± 0.055. Also, the NP40-soluble protein abundance reads like this: (concentration: 8mM) 1.2 ± 0.061; (concentration: 10mM) 1.23 ± 0.3.

Turning to UniProt Q9H3U1-2, the NP40-soluble protein abundance is 0.977 ± 0.015 (concentration: 0.1mM); 0.949 ± 0.028 (concentration: 0.5mM); 0.926 ± 0.018 (concentration: 1mM); 0.9 ± 0.036 (concentration: 2mM); 0.895 ± 0.023 (concentration: 4mM); 0.889 ± 0.053 (concentration: 6mM). Also, the NP40-soluble protein abundance (concentration: 8mM) came out at 0.894 ± 0.026 and the NP40-soluble protein abundance (concentration: 10mM) was determined as 0.877 ± 0.038.

SMYD2 (UniProt Q9NRG4): the NP40-soluble protein abundance is 1.06 ± 0.11 (concentration: 0.1mM); 1.08 ± 0.096 (concentration: 0.5mM); 0.989 ± 0.091 (concentration: 1mM); 0.96 ± 0.092 (concentration: 2mM); 0.958 ± 0.1 (concentration: 4mM); 0.983 ± 0.1 (concentration: 6mM). Further, the NP40-soluble protein abundance by setting is: (concentration: 8mM) 0.982 ± 0.12; (concentration: 10mM) 0.919 ± 0.079.

Take UniProt Q9H6D7: the NP40-soluble protein abundance is 0.98 ± 0.064 (concentration: 0.1mM); 0.93 ± 0.035 (concentration: 0.5mM); 1.06 ± 0.068 (concentration: 1mM); 1.07 ± 0.03 (concentration: 2mM); 1.08 ± 0.094 (concentration: 4mM); 1.09 ± 0.063 (concentration: 6mM). The NP40-soluble protein abundance is, setting by setting: (concentration: 8mM) 1.01 ± 0.16; (concentration: 10mM) 1.11 ± 0.13.

As for VPS16 (UniProt Q9H269), the NP40-soluble protein abundance runs as follows: (concentration: 0.1mM) 1.09 ± 0.077; (concentration: 0.5mM) 1.09 ± 0.12; (concentration: 1mM) 1.09 ± 0.043; (concentration: 2mM) 1.06 ± 0.054; (concentration: 4mM) 1.07 ± 0.049; (concentration: 6mM) 1.01 ± 0.022. For the same target, the NP40-soluble protein abundance was determined as 1.08 ± 0.063 (concentration: 8mM) and 0.98 ± 0.041 (concentration: 10mM).
